From publication PMC7863878 come the findings set out here.

The target of this assay is V1-Ct-FLAG (FLAG-tagged TRPV1 C terminus) (rat). Put plainly: co-IP; HEK 293T cells co-transfected; Nonidet P-40 lysis buffer (20 mM Tris-HCl pH 7.4, 150 mM NaCl, 1 mM EDTA, 1% NP-40); IP with anti-FLAG; washes with buffer containing 0.5 M NaCl; immunoblot with anti-GFP, anti-HA, anti-FLAG.

These are yes or no findings as the source states them, for the method shown. In cells and extracts the contact can be indirect. Where a sequence is shown, tags or fusion partners need not be part of it.

B1: Kvβ1-GFP (protein, UniProt P63143 1-401)
chain: MQVSIACTEHNLKSRNGEDRLLSKQSSNAPNVVNAARAKFRTVAIIARSLGTFTPQHHISLKESTAKQTGMKYRNLGKSGLRVSCLGLGTWVTFGGQISDEVAERLMTIAYESGVNLFDTAEVYAAGKAEVILGSIIKKKGWRRSSLVITTKLYWGGKAETERGLSRKHIIEGLKGSLQRLQLEYVDVVFANRPDSNTPMEEIVRAMTHVINQGMAMYWGTSRWSAMEIMEAYSVARQFNMIPPVCEQAEYHLFQREKVEVQLPELYHKIGVGAMTWSPLACGIISGKYGNGVPESSRASLKCYQWLKERIVSEEGRKQQNKLKDLSPIAERLGCTLPQLAVAWCLRNEGVSSVLLGSSTPEQLIENLGAIQVLPKMTSHVVNEIDNILRNKPYSKKDYRS
For B1, the binding result is recorded as “no binding”.
